US8841254B2, “Method for treatment of anxiety” (Howard Florey Institute of Experimental Physiology and …, priority 2001, dated 2014)
Not every detail of the peptide structures is certain; ends, links or a residue may be inferred.

Test system: goat anti-H2 relaxin antibody
Assay: Antibody crossreactivity radioimmunoassay (displacement of 125I-labeled H2 relaxin)
Assay type: binding
Conditions: FIG. 4
Experimental: The ability of well characterized human relaxin antibodies to recognize H3 relaxin was tested in comparison to H1 and H2 relaxins by radioimmunoassay. Briefly, goat anti-H2 relaxin (Lucas et al (1989) J. Endocrinol. 120, 449-57) was coated onto 96 well ELISA plates (Disposable Products, Adelaide, Australia) at a dilution of 1:1000 with 0.05M sodium carbonate buffer at 4° C. overnight. After washing twice with PBS-T (phosphate buffered saline; 0.05% Tween 20, pH 7.4) dilutions of human relaxin peptides dissolved in 50 μl of assay buffer (1% BSA in PBS-T) were added together with 50,000 cpm ^125I-labeled relaxin, in 50 μl of assay buffer. H2 relaxin was ^125I-labeled and purified by HPLC (Palejwala et al (1998) Endocrinology 139, 1208-1212). After an overnight incubation at 4° C. the plates were washed twice with PBS-T. The antibody-bound-^125I-labeled H2 relaxin was collected by the addition of 1M NaOH and decanted into tubes for counting on a Packard 5010 gamma counter (Canberra Packard). Experiments were performed at least twice and similar results obtained. Data was plotted as the mean±SEM from one representative experiment performed in triplicate and plotted using PRISM.

`CC[C@H](C)[C@@H]1NC(=O)[C@H](C)NC(=O)[C@H]([C@@H](C)CC)NC(=O)[C@H](CCC(N)=O)NC(=O)[C@H](C)NC(=O)[C@H](CCCNC(=N)N)NC(=O)[C@H](C(C)C)NC(=O)[C@H](CC(C)C)NC(=O)[C@H](CCC(=O)O)NC(=O)[C@H](CCCNC(=N)N)NC(=O)CNC(=O)[C@@H](NC(=O)[C@H](CC(C)C)NC(=O)[C@H](CCCCN)NC(=O)[C@@H](NC(=O)[C@@H](NC(=O)[C@H](CC(=O)O)NC(=O)[C@H](CC(=O)O)NC(=O)[C@H](CCCCN)NC(=O)[C@H](Cc2c[nH]c3ccccc23)NC(=O)[C@@H](N)CCCCN)C(C)C)[C@@H](C)CC)CSSC[C@@H]2NC(=O)[C@@H](NC(=O)[C@H](CCCCN)NC(=O)[C@H](CCC(=O)O)NC(=O)[C@H](Cc3ccccc3)NC(=O)[C@H](CC(C)C)NC(=O)[C@H](C)NC(=O)[C@@H](NC(=O)[C@H](Cc3ccc(O)cc3)NC(=O)[C@@H]3CCCN3C(=O)[C@@H](N)CCCNC(=N)N)C(C)C)CSSC[C@H](NC(=O)CNC(=O)[C@H]([C@@H](C)CC)NC(=O)[C@H](CC(C)C)NC2=O)C(=O)N[C@@H]([C@@H](C)O)C(=O)N[C@@H](CCCCN)C(=O)N[C@@H](CCCNC(=N)N)C(=O)N[C@@H](CO)C(=O)N[C@@H](CC(C)C)C(=O)N[C@@H](C)C(=O)N[C@@H](CCCCN)C(=O)N[C@@H](Cc2ccc(O)cc2)C(=O)N[C@H](C(=O)O)CSSC[C@@H](C(=O)NCC(=O)N[C@@H](CCSC)C(=O)N[C@@H](CO)C(=O)N[C@H](C(=O)N[C@@H](Cc2c[nH]c3ccccc23)C(=O)N[C@@H](CO)C(=O)O)[C@@H](C)O)NC1=O` [H1 relaxin] was tested, and the “ability to displace 125I-labeled H2 relaxin binding to the anti-H2 relaxin antibody” value was “poor cross reactivity”.
